According to doi:10.1101/2020.11.18.387720:
No constants are given. Whether binding was seen depends on the method and setting. In cells and extracts the contact can be indirect. Some results given as binding are weak or reduced against the parent protein; the word gives no strength. Where a sequence is shown, tags or fusion partners need not be part of it. Values belong to the binder of their own block, whether it stands above or below them.

Key:
[1] = biological target: T1, Fz2 (endogenous, detected with anti-Fz2-N antibody) (Drosophila (endogenous in larval muscle)) (UniProt Q9VVX3); test: proximity ligation
T1 sequence: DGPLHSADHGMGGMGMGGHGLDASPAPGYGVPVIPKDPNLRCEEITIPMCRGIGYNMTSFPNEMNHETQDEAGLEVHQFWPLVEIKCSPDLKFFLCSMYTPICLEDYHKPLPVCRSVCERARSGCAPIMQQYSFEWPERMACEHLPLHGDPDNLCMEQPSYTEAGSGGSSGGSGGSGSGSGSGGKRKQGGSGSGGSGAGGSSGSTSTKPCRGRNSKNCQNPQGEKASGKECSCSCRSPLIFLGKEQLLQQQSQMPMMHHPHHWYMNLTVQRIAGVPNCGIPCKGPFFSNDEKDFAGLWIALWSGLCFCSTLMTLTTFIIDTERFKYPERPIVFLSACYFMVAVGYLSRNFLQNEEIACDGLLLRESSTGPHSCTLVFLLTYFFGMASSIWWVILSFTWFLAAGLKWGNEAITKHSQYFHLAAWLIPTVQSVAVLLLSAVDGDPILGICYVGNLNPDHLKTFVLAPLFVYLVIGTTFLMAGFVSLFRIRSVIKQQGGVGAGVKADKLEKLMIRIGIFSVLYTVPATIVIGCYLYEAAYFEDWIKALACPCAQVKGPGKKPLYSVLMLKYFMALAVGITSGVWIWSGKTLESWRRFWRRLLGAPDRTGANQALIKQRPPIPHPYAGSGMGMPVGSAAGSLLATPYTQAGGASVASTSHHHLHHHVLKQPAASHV

[2] = biological target: T2, Fz2-FLAG (C-terminally FLAG-tagged Frizzled2) (Drosophila) (UniProt Q9VVX3); test: proximity ligation
T2 sequence: T1 sequence

binding [1]: binds
B1: Nct-Myc (epitope-tagged Nicastrin) (protein, UniProt Q9VC27 23-695)
chain: QGERTRDKMYEPIGGASCFRRLNGTHQTGCSSTYSGSVGVLHLINVEADLEFLLSSPPSPPYAPMIPPHLFTRNNLMRLKEAGPKNISVVLLINRTNQMKQFSHELNCPNQYSGLNSTSETCDASNPAKNWNPWGTGLLHEDFPFPIYYIADLDQVTKLEKCFQDFNNHNYETHALRSLCAVEVKSFMSAAVNTEVCMRRTNFINNLGGSKYCDPLEGRNVYATLYPRKPAIENNLETVHTNEKFILVTCRLDTTTMFDGVGLGAMDSLMGFAVFTHVAYLLKQLLPPQSKDLHNVLFVTFNGESYDYIGSQRFVYDMEKLQFPTESTGTPPIAFDNIDFMLDIGTLDDISNIKLHALNGTTLAQQILERLNNYAKSPRYGFNLNIQSEMSAHLPPTSAQSFLRRDPNFNALILNARPTNKYYHSIYDDADNVDFTYANTSKDFTQLTEVNDFKSLNPDSLQMKVRNVSSIVAMALYQTITGKEYTGTKVANPLMADEFLYCFLQSADCPLFKAASYPGSQLTNLPPMRYISVLGGSQESSGYTYRLLGYLLSQLQPDIHRDNCTDLPLHYFAGFNNIGECRLTTQNYSHALSPAFLIDGYDWSSGMYSTWTESTWSQFSARIFLRPSNVHQVTTLSVGIVVLIISFCLVYIISSRSEVLFEDLPASNAALFG

binding [2]: binds
B2: Psn-Myc (epitope-tagged Presenilin) (protein, UniProt O02194 1-541)
chain: MAAVNLQASCSSGLASEDDANVGSQIGAAERLERPPRRQQQRNNYGSSNQDQPDAAILAVPNVVMREPCGSRPSRLTGGGGGSGGPPTNEMEEEQGLKYGAQHVIKLFVPVSLCMLVVVATINSISFYNSTDVYLLYTPFHEQSPEPSVKFWSALANSLILMSVVVVMTFLLIVLYKKRCYRIIHGWLILSSFMLLFIFTYLYLEELLRAYNIPMDYPTALLIMWNFGVVGMMSIHWQGPLRLQQGYLIFVAALMALVFIKYLPEWTAWAVLAAISIWDLIAVLSPRGPLRILVETAQERNEQIFPALIYSSTVVYALVNTVTPQQSQATASSSPSSSNSTTTTRATQNSLASPEAAAASGQRTGNSHPRQNQRDDGSVLATEGMPLVTFKSNLRGNAEAAGFTQEWSANLSERVARRQIEVQSTQSGNAQRSNEYRTVTAPDQNHPDGQEERGIKLGLGDFIFYSVLVGKASSYGDWTTTIACFVAILIGLCLTLLLLAIWRKALPALPISITFGLIFCFATSAVVKPFMEDLSAKQVFI
